Single values of this data set are uncertain.
B1: human tRNA-Pro; a variant is named by its letters at N, in order (parent)
chain: GGCTCGTTGGTCTAGNGGTATGATTCTCGCTTAGGGTGCGAGAGGTCCCGGGTTCNNATCCCGGACGAGCCC

What was measured:
[1] = variants of: B1; experiment: tRNA Pol-III promoter activity, log2 (circRNA frequency / plasmid DNA frequency) (log2 ratio); higher = stronger promoter activity; details: HEK293T; construct: no Pol-II promoter ((-)CMV library)
[2] = variants of: B1; experiment: tRNA 3' processing efficiency (processed reads / all reads, maximum-likelihood estimate) (fraction); higher = more efficient 3' processing; details: HEK293T; construct: no Pol-II promoter ((-)CMV library)
[3] = variants of: B1; experiment: tRNA 5' processing efficiency (processed reads / all reads, maximum-likelihood estimate) (fraction); higher = more efficient 5' processing; details: HEK293T; construct: CMV Pol-II promoter ((+)CMV library, decapped)

Q: Which results are given for GGCTCGTCGGTCTAGAGGTATGATTCTCGCTTAGGGTGCGAGAGGTCCCGGGTTCACATCCCGGACGAGCCC [AAC T8C]?
A: tRNA Pol-III promoter activity (log2) [1]: 4.21; tRNA 3' processing efficiency [2]: 0.33; tRNA 5' processing efficiency [3]: 0.25

Q: Which “tRNA Pol-III promoter activity (log2)” value [1] does the source give for GGCTCGTTGGTCTATGCGTATGATTCTCGCTTAGGGTGCGAGAGGTCCCGGGTTCACATCCCGGACGAGCCC [GAC G15T G17C] here?
A: 3.3

Q: What about the “tRNA 3' processing efficiency” value [2] of the same variant?
A: 0.27

Q: Which results are given for GGCTCGTTGGTCTACAAGTATGATTCTCGCTTAGGGTGCGAGAGGTCCCGGGTTCACATCCCGGACGAGCCC [AAC G15C G17A]?
A: tRNA Pol-III promoter activity (log2) [1]: 4.94; tRNA 3' processing efficiency [2]: 0.62

Q: For GGCTCGTTGGTCTAGGTGTATGATTCTCGCTTAGGGTGCGAGAGGTCCCGGGCTCACATCCCGGACGAGCCC [GAC G17T T53C], which “tRNA Pol-III promoter activity (log2)” value [1] is on record?
A: 2.33

Q: And the “tRNA 3' processing efficiency” value [2]?
A: 0.25

Q: What does the source list for GGCTCGTCGGTCTAGTGGTATGATTCTCGCTTAGGGTGCGAGAGGTCCCGGGTTCACATCCCGGACGAGCCC [TAC T8C]?
A: tRNA Pol-III promoter activity (log2) [1]: 5.53; tRNA 3' processing efficiency [2]: 0.33

Q: For GGCTCGTTGGTCTAGGCGTATGATTCTCGCTTAGGGTGCGAGAGGTCCCGGGTTCACATCCCGGACGAGCCC [GAC G17C], which “tRNA Pol-III promoter activity (log2)” value [1] is on record?
A: 0.602

Q: And the “tRNA 3' processing efficiency” value [2]?
A: 0.32

Q: For GGCTCGTTGGTCTAGGTGTATGATTCTCGCTTAGGGTGCGAGAGGTCCCGGGTTCACATCCCGGACGAGCCC [GAC G17T], which “tRNA Pol-III promoter activity (log2)” value [1] is on record?
A: -0.0796

Q: And the “tRNA 3' processing efficiency” value [2]?
A: 0.3

Q: And the “tRNA 5' processing efficiency” value [3]?
A: 0.33

Q: For GGCTCGTTGGTCTAGGGACATGATTCTCGCTTAGGGTGCGAGAGGTCCCGGGTTCACATCCCGGACGAGCCC [GAC G18A T19C], which “tRNA Pol-III promoter activity (log2)” value [1] is on record?
A: 3.19

Q: And the “tRNA 3' processing efficiency” value [2]?
A: 0.33

Q: Which results are given for GGCTCGTCGGTCTAGGGGCATGATTCTCGCTTAGGGTGCGAGAGGTCCCGGGTTCACATCCCGGACGAGCCC [GAC T8C T19C]?
A: tRNA Pol-III promoter activity (log2) [1]: 2.61; tRNA 3' processing efficiency [2]: 0.25

Q: With GGCTCGTTGGTCTAGGGGTATGATTCTCGCTTAGGGTGCGAGAGGTCCCTGGTTCACATCCCGGACGAGCCC [GAC G50T] as the variant, how does the “tRNA Pol-III promoter activity (log2)” value [1] read?
A: 5.16

Q: What about the “tRNA 3' processing efficiency” value [2] of the same variant?
A: 0.43

Q: For GGCTCGTCGGTCTAGGGGTATGATTCTCGCTTAGGGTGCGAGAGGTCCCGGGTTCACATCCCGGACGAGCCC [GAC T8C], which “tRNA Pol-III promoter activity (log2)” value [1] is on record?
A: 0.752

Q: What about the “tRNA 3' processing efficiency” value [2] of the same variant?
A: 0.24

Q: With GGCTCGTAGGTCTAGGGGTATGATTCTCGCTTAGGGTGCGAGAGGTCCCGGGTTCACATCCCGGACGAGCCC [GAC T8A] as the variant, how does the “tRNA Pol-III promoter activity (log2)” value [1] read?
A: -1.58

Q: What about the “tRNA 3' processing efficiency” value [2] of the same variant?
A: 0.5

Q: With GGCTCGTTGGTCTAAGTGTATGATTCTCGCTTAGGGTGCGAGAGGTCCCGGGTTCACATCCCGGACGAGCCC [GAC G15A G17T] as the variant, how does the “tRNA Pol-III promoter activity (log2)” value [1] read?
A: 3.67

Q: And the “tRNA 3' processing efficiency” value [2]?
A: 0.2

Q: Which “tRNA Pol-III promoter activity (log2)” value [1] does the source give for GGCTCGTTGGTCTAAGAGTATGATTCTCGCTTAGGGTGCGAGAGGTCCCGGGTTCACATCCCGGACGAGCCC [GAC G15A G17A] here?
A: 4.18

Q: And the “tRNA 3' processing efficiency” value [2]?
A: 0.08

Q: What does the source list for GGCTCGTTGGTCTAGTGCTATGATTCTCGCTTAGGGTGCGAGAGGTCCCGGGTTCACATCCCGGACGAGCCC [TAC G18C]?
A: tRNA Pol-III promoter activity (log2) [1]: 4.34; tRNA 3' processing efficiency [2]: 0.38

Q: Which “tRNA Pol-III promoter activity (log2)” value [1] does the source give for GGCTCGTAGGTCTATGGGTATGATTCTCGCTTAGGGTGCGAGAGGTCCCGGGTGTACAGCCCGGACGAGCCC [GAC T8A G15T T54G C55T T59G] here?
A: 5.03

Q: What about the “tRNA 3' processing efficiency” value [2] of the same variant?
A: 0.5

Q: Which “tRNA Pol-III promoter activity (log2)” value [1] does the source give for GGCTCGTTGGTCTAGGAGTATGATTCTCGCTTAGGGTGCGAGAGGTCCCGGGGTTACATCCCGGACGAGCCC [GAC G17A T53G C55T] here?
A: 3.53

Q: What about the “tRNA 3' processing efficiency” value [2] of the same variant?
A: 0.33

Q: With GGCTCGTTGGTCTATCGGTATGATTCTCGCTTAGGGTGCGAGAGGTCCCGGGTTCACATCCCGGACGAGCCC [CAC G15T] as the variant, how does the “tRNA Pol-III promoter activity (log2)” value [1] read?
A: 5.26

Q: What about the “tRNA 3' processing efficiency” value [2] of the same variant?
A: 0.57

Q: For GGCTCGTGGGTCTAGCGGTATGATTCTCGCTTAGGGTGCGAGAGGTCCCGGGTTCACATCCCGGACGAGCCC [CAC T8G], which “tRNA Pol-III promoter activity (log2)” value [1] is on record?
A: 4.34

Q: And the “tRNA 3' processing efficiency” value [2]?
A: 0.13

Q: For GGCTCGTAGGTCTAAGGGTATGATTCTCGCTTAGGGTGCGAGAGGTCCCGGGTCCACATCCCGGACGAGCCC [GAC T8A G15A T54C], which “tRNA Pol-III promoter activity (log2)” value [1] is on record?
A: 5.15

Q: And the “tRNA 3' processing efficiency” value [2]?
A: 0.57

Q: Which “tRNA Pol-III promoter activity (log2)” value [1] does the source give for GGCTCGTTGGTCTATGGATCTGATTCTCGCTTAGGGTGCGAGAGGTCCCGGGTTCACATCCCGGACGAGCCC [GAC G15T G18A A20C] here?
A: 5.51

Q: And the “tRNA 3' processing efficiency” value [2]?
A: 0.33

Q: Which “tRNA Pol-III promoter activity (log2)” value [1] does the source give for GGCTCGTTGGTCTACGGGTATGATTCTCGCTTAGGGTGCGAGAGGTCCCGGGTTCACATCCCGGACGAGCCC [GAC G15C] here?
A: 0.995

Q: And the “tRNA 3' processing efficiency” value [2]?
A: 0.22

Q: With GGCTCGTTGGTCTAAGTGTGTGATTCTCGCTTAGGGTGCGAGAGGTCCCGGGTTCACATCCCGGACGAGCCC [GAC G15A G17T A20G] as the variant, how does the “tRNA Pol-III promoter activity (log2)” value [1] read?
A: 4.94

Q: And the “tRNA 3' processing efficiency” value [2]?
A: 0.25

Q: What does the source list for GGCTCGTTGGTCTAGAAGTATGATTCTCGCTTAGGGTGCGAGAGGTCCCGGGTTCACATCCCGGACGAGCCC [AAC G17A]?
A: tRNA Pol-III promoter activity (log2) [1]: 4.04; tRNA 3' processing efficiency [2]: 0.69

Q: For GGCTCGTTGGTCTAGGGTTATGATTCTCGCTTAGGGTGCGAGAGGTCCCGGGTTCACATCCCGGACGAGCCC [GAC G18T], which “tRNA Pol-III promoter activity (log2)” value [1] is on record?
A: -0.746

Q: What about the “tRNA 3' processing efficiency” value [2] of the same variant?
A: 0.38

Q: For GGCTCGTTGGTCTAGGGATATGATTCTCGCTTAGGGTGCGAGAGGTCCCGGGTTCACATCCCGGACGAGCCC [GAC G18A], which “tRNA Pol-III promoter activity (log2)” value [1] is on record?
A: 0.796

Q: What about the “tRNA 3' processing efficiency” value [2] of the same variant?
A: 0.28

Q: What about the “tRNA 5' processing efficiency” value [3] of the same variant?
A: 0.25

Q: With GGCTCGTTGGTCTACTGGTATGATTCTCGCTTAGGGTGCGAGAGGTCCCGGGTTCACATCCCGGACGAGCCC [TAC G15C] as the variant, how does the “tRNA Pol-III promoter activity (log2)” value [1] read?
A: 2.9

Q: What about the “tRNA 3' processing efficiency” value [2] of the same variant?
A: 0.4

Q: For GGCTCGTTGGTCTATTGGTATGATTCTCGCTTAGGGTGCGAGAGGTCCCGGGTTCACATCCCGGACGAGCCC [TAC G15T], which “tRNA Pol-III promoter activity (log2)” value [1] is on record?
A: 2.69

Q: And the “tRNA 3' processing efficiency” value [2]?
A: 0.13

Q: What about the “tRNA 5' processing efficiency” value [3] of the same variant?
A: 0.25

Q: For GGCTCGTTGGTCTAGGTGTATGATTCTCGCTTAGGGTGCGAGAGGTCCCGGGTTCACCTCCCGGACGAGCCC [GAC G17T A58C], which “tRNA Pol-III promoter activity (log2)” value [1] is on record?
A: 2.53

Q: And the “tRNA 3' processing efficiency” value [2]?
A: 0.56

Q: Which results are given for GGCTCGTTGGTCTAGGTGTTTGATTCTCGCTTAGGGTGCGAGAGGTCCCGGGTTCACGTCCCGGACGAGCCC [GAC G17T A20T A58G]?
A: tRNA Pol-III promoter activity (log2) [1]: 6.25; tRNA 3' processing efficiency [2]: 0.2

Q: With GGCTCGTTGGTCTAGGAGTTTGATTCTCGCTTAGGGTGCGAGAGGTCCCGGGTTCACATCCCGGACGAGCCC [GAC G17A A20T] as the variant, how does the “tRNA Pol-III promoter activity (log2)” value [1] read?
A: 3.14

Q: And the “tRNA 3' processing efficiency” value [2]?
A: 0.43

Q: Which results are given for GGCTCGTTGGTCTAGCGATATGATTCTCGCTTAGGGTGCGAGAGGTCCCGGGTTCACATCCCGGACGAGCCC [CAC G18A]?
A: tRNA Pol-III promoter activity (log2) [1]: 3.71; tRNA 3' processing efficiency [2]: 0.17

Q: Which “tRNA Pol-III promoter activity (log2)” value [1] does the source give for GGCTCGTTGGTCTACGGGTATGATTCTCGCTTAGGGTGCGAGAGGTCCCGGGATCACATCCCGGACGAGCCC [GAC G15C T53A] here?
A: 5.93

Q: What about the “tRNA 3' processing efficiency” value [2] of the same variant?
A: 0.25

Q: Which “tRNA Pol-III promoter activity (log2)” value [1] does the source give for GGCTCGTTGGTCTAGGCGTATGATTCTCGCTTAGGGTGCGAGAGGTCCCGGGTTCACAACCCGGACGAGCCC [GAC G17C T59A] here?
A: 3.76

Q: What about the “tRNA 3' processing efficiency” value [2] of the same variant?
A: 0.25

Q: What does the source list for GGCTCGTGGGTCTAGTGGTCTGATTCTCGCTTAGGGTGCGAGAGGTCCCGGGTTCACATCCCGGACGAGCCC [TAC T8G A20C]?
A: tRNA Pol-III promoter activity (log2) [1]: 3.36; tRNA 3' processing efficiency [2]: 0.25

Q: Which results are given for GGCTCGTTGGTCTATGGGAATGATTCTCGCTTAGGGTGCGAGAGGTCCCGGGTTCACATCCCGGACGAGCCC [GAC G15T T19A]?
A: tRNA Pol-III promoter activity (log2) [1]: 3.4; tRNA 3' processing efficiency [2]: 0.33
